This passage reports binding results from patent US20220177589A1.

These are yes or no findings as the source states them, for the method shown. Some entries that bind do so weakly or less than the wild type.

To fix the notation:
B1: 4B1 (antibody, IgG1, V domains shown)
VH: QVQLQQSGAELARPGASVRLSCKASGYTFTSYGLIWLKQRTGQGLEWIGEIYPRSGSTYYNEWFKGKATLTADKSSNTAFMELRSLTSEDSAVYFCARRRGTGDGFDYWGQGTILTVSS
VL: DIQMTQTTSSLSASLGDRVTISCSASQGISNYLNWYQQKPDGTVKLLIYYTSSLHSGVPSRFSGSGSGTDYSLTISNLEPEDIATYYCQQYIELPFTFGSGTKLEIK
B2: 8B4 (antibody, IgG1, V domains shown)
VH: QVQLQQSGAELARPGASVKLPCKASGYTFTSYGISWVKQRTGQGLEWIGEIYPRSGTTYYNEKFKGKATLTADKSSSTAYMELRSLTSEDSAVYFCARRISSGSGVDYWGQGTTLTVSS
VL: DIQMTQTTSSLSASLGDRVTISCSASQGISNYLNWYQQKPDGTVKLLIYYTSSLHSGVPSRFSGSGSGTDYSLTISNLEPEDIATYYCQQYSELPWTFGGGTKLEIK
B3: 4H4 (antibody, IgG1, V domains shown)
VH: QVQLQQSGAELARPGASVKLSCKASGYTFTSYGISWVKQRTGQGLEWIGEIYPRSGNTYYNEKFKGKATLTADKSSSTAYMELRSLTSEDSAVYFCARRRGAGDGFDYWGQGTTLTVSS
VL: DIQMTQTTSSLSASLGDRVTISCSASQGISNYLNWYQQKPDGTVKLLIYYTSSLHSGVPSRFSGSGSGTDYSLTISNLEPEDIATYYCQQYSKLPFTFGSGTKLEIK
B4: 4D5 (antibody, IgG1, V domains shown)
VH: QIQLVQSGPELKKPGETVKISCKASGYTFTTYGVSWVKQAPGKVLKWMGWINTYSGVPTYADDFKGRFAFSLETSASTAYLQISNLKNEDTATYFCAPVTTILHWYFDVWGTGTTVTVSS
VL: DIQMTQSPSSLSASLGERVSLTCRASQEISGYLSWLQQKPDGTIKRLIYAASTLDSGVPKRFRGSRSGSDYSLTISSLESEDFADYYCLQYASYPFTFGSGTKLEIK
B5: 16F10 (antibody, IgG1, V domains shown)
VH: DVQLQESGPGLVKPSQSLSLTCSVTGYSITSGYYWNWIRQFPGNKLEWMGYISYDGSNNYNPSLKNRISITRDTSKNQFFLKLNSVTTEDTATYYCASIYGNYYAMDYWGQGTSVTVSS
VL: QIVLTQSPAIMSASPGEKVTMTCSASSSVSYMHWYQQKSGTSPKRWIYDTSKLASGVPARFSGSGSGTSYSLTISSMEAEDAATYYCQQWSSNPPTFGSGTKLEIK
B6: 12F11 (antibody, IgG1, V domains shown)
VH: EVQLQQSGPELVKPGASVKISCKASGYTFTDYYMNWVKQSHGKSLEWIGDINPNNGGTSYNQKFKGKATLTVDKSSSTAYMELRSLTSEDSAVYYCARWRQLRSDYWGQGTTLTVSS
VL: DIQMTQSPASQSASLGESVTITCLASQTIGTWLAWYQQKPGKSPQLLIYAATSLADGVPSRFSGSGSGTKFSFKISSLQAEDFVSYYCQQLYSTPLTFGAGTKLELK
B7: 3A9 (antibody, IgG1, V domains shown)
VH: QVQLKQSGAELVRPGASVKLSCKASGYTFTDYYINWVKQRPGQGLEWIARIYPGSGNTYYNEKFKGKATLTAEKSSSTAYMQLSSLTSEDSAVYFCARGYGNSDYWGQGTTLTVSS
VL: DILLTQSPAILSVSPGERVSFSCRASQSIGTRIHWYQQRTNGSPRLLIKYASESISGIPSRFSGSGSGTDFTLSINSVESEDIADYYCQQSNSWPYTFGGGTKLEIK
B8: 6.2 (antibody, IgG1, V domains shown)
VH: EVKLVESGGGLVKPGGSLKLSCAASGFTLSSYGMSWVRQIPEKRLEWVASIRSDGNTYYPDSVKGRFIISRDNARNILYLQMSSLRSEDTAMYYCTRGGYYGSSPYYWGQGTTLTVSS
VL: DIVMSQSPSSLPVSVGEKISMTCKSSQSLLYSSNQKNYLAWYQQKPGQSPKLLIYWASTRDSGVPDRFIGSGSGTDFTLTINSVKAEDLAVYYCQQYYNYLTFGAGTKLELK
B9: 7A1 (antibody, IgG1, V domains shown)
VH: QVQLQQSGPELVKPGASVKISCKASGYAFSSSWMNWVKQRPGKGLEWIGRIYPGDGDTNYNGKFKGKATLTADKSSSTAYMQLSSLTSEDSAVYFCARRGYGYLAYWGQGTLVTVSA
VL: DIVMTQSHKFMSTSVGDRVSITCKASQDVSTAVAWYQQKPGQSPKLLIYSASYRYTGVPDRFTGSGSGTDFTFTISSVQAEDLAVYYCQQHYSTPWTFGGGTKLEIK
B10: 15C6 (antibody, IgG1, V domains shown)
VH: QVQLQQSGPELVKPGASVKISCKASGYAFSSSWMNWVKQRPGKGLEWIGRIYPGDGDTNYNGKFKGKATLTADKSSSTAYMQLSSLTSEDSAVYFCARRGYGYLAYWGQGTLVTVSA
VL: DIVMTQSHKFMSTSVGDRVSITCKASQDVSTAVAWYQQKPGQSPKLLIYSASYRYTGVPDRFTGSGSGTDFTFTISSVQAEDLAVYYCQQHYSTPYTFGGGTKLEIK
B11: 21C7 (antibody, IgG1, V domains shown)
VH: QIQLQQSGPELVKPGASVKISCKASGYAFSSSWMNWVKKRPGKGLEWIGRIYPGDGDANYNGKFKGKATLTADKSSSTAYMQLSSLTSEDSAVYFCAGEGHYYGSGYRWYLDVWGTGTTVTVSS
VL: DIQMTQSPASLSVSVGETVTITCRASENIYSNLAWYQQKQGKSPQLLVYAATNLADGVPSRFSGSGSGTQYSLKINSLQSEDFGSYYCQHFRGAPFTFGSGTKLEIK
B12: 831 (antibody, V domains shown)
VH: DVQLQESGPDLVKPSQSLSVTCTVTGYSITSGYSWHWIRQFPGNKLEWMGYIHYSGSTNYNPSLKSRISITRDTSKNQFFLQLSSVTTEDTATYYCASGPHRYDGVWFAYWGQGTLVTVSS
VL: EIVLTQSPTTMAASPGEKITITCSASSSISSNYLHWYQQKPGFSPKLLIYRTSNLASGVPARFSGSGSGTSYSLTIGTMEAEDVATYYCQQGTNIPLTFGAGTKLEIK
B13: 24H7 (antibody, IgG1, V domains shown)
VH: QVQLQQSGAELVRPGASVTLSCKASGYTFTDYEIHWVKQTLVHGLEWIGPIDPDTGNTAYNQNLKGKAILTADKSSSTAYMELRSLTSEDSAVYYCTRGGYDSDWGFAYWGQGTLVTVSA
VL: DIVMTQATPSVPVTPGESVSISCRSSKSLLHSNGNTFLFWFLQRPGQSPQLLIYRMSDLASGVPDRFSGSGSGTAFTLRISRVEAEDVGIYYCMQHLEYPFTFGSGTKLEIK

This experiment deals with human BTLA extracellular region with the transmembrane and intracellular regions of murine CD28, wild type, on HEK-293T cells (human; mouse) (UniProt P31041). As to the kind of experiment: flow cytometry on HEK-293T cells with BTLA constructs. For orientation: In flow cytometry, cells or beads pass a laser one at a time.
Consider B1, for which the binding result is “binds”. The same measure for B2: “binds”; for B3: “binds”. Consider B4, for which the binding entry was “binds”.

Turning to B5, the binding result was “binds”. As for B6, the binding result was “binds”. The same measure for B7: “binds”; for B8: “binds”. Consider B9, for which the binding result was “binds”. The same measure for B10: “binds”. The same measure for B11: “binds”; for B12: “binds”; for B13: “binds”.
